The supplement of paper PMC10849652
The other results are listed elsewhere or left out.

By UniProt entry, the sequences of proteins in these tests, tags left out. Where a name states a change or a piece, a line headed by the entry shows the natural chain unless it says otherwise.
UniProt Q8N9N8: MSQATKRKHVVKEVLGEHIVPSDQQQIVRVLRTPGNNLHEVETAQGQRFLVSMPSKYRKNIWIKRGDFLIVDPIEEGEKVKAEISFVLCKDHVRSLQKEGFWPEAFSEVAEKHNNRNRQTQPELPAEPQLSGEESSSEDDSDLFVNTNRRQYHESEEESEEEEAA
UniProt Q53HC9: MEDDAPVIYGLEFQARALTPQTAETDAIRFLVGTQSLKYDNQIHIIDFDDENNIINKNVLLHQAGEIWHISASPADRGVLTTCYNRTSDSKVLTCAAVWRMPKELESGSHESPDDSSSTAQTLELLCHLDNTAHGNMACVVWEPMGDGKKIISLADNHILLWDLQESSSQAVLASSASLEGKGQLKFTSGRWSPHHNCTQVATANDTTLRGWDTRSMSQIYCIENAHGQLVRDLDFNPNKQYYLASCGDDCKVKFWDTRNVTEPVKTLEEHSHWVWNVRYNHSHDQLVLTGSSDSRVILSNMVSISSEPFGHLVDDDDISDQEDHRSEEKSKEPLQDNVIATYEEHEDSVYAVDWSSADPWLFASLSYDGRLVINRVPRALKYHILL
UniProt O43324: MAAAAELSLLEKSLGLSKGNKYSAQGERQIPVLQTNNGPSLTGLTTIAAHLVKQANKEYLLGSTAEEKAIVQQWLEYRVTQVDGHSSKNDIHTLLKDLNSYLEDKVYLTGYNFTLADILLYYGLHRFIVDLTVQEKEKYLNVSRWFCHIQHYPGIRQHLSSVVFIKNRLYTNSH
UniProt Q13144, whole entry, looked up: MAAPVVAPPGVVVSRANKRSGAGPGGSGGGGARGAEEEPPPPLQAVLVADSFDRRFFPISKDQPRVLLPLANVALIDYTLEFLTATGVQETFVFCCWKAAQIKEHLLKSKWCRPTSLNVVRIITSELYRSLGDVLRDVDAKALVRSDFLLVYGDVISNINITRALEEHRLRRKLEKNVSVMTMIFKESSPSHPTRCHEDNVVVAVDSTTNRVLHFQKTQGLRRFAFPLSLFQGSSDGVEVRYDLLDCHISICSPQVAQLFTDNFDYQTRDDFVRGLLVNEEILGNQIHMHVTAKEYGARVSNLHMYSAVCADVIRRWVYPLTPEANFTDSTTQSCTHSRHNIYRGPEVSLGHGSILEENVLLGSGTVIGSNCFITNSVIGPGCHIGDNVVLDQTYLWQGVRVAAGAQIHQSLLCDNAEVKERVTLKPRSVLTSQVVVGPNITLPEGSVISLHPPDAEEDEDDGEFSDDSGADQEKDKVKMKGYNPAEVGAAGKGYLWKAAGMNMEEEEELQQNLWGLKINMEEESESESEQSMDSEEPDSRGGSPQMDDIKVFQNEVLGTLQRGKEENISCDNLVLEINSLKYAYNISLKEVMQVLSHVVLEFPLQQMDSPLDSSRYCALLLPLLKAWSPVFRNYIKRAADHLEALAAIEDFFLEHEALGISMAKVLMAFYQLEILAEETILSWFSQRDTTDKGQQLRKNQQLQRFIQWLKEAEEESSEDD
UniProt O75356: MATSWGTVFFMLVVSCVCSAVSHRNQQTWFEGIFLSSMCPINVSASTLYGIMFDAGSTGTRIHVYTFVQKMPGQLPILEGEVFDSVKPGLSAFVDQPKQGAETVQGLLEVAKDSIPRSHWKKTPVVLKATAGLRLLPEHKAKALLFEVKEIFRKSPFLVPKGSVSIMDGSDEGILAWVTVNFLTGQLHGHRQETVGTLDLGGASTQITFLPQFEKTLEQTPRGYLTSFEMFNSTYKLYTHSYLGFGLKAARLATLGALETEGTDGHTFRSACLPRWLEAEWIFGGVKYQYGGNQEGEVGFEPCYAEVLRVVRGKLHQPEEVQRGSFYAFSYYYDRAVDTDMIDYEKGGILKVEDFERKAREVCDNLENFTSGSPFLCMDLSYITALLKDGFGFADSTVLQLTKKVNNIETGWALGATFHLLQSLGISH
UniProt P98172: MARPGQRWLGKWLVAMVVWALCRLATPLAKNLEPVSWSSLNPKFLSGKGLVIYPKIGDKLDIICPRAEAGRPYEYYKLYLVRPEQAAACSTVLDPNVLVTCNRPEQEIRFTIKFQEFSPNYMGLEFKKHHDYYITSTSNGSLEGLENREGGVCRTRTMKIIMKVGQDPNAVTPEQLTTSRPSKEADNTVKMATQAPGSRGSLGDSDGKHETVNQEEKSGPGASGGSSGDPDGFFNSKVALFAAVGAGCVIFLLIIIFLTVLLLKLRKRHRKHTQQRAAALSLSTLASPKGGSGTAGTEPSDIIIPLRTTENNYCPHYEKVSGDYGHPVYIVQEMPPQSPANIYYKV
UniProt P26378: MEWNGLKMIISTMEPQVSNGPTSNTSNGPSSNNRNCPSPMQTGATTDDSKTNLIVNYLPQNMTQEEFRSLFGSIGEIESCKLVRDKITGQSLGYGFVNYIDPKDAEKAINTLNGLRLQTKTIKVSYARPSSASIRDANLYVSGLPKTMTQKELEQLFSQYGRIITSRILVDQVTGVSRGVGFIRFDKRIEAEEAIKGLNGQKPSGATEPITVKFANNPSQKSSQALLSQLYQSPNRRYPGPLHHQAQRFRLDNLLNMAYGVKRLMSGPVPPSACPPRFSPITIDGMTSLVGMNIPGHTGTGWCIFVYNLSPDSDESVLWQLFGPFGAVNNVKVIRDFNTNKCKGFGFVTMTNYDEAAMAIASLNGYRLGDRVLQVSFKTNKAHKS
UniProt O43768: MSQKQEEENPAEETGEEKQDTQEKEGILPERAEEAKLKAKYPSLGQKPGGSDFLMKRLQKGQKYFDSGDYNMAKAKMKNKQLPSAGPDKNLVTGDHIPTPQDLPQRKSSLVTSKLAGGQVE
UniProt P05198, whole entry, looked up: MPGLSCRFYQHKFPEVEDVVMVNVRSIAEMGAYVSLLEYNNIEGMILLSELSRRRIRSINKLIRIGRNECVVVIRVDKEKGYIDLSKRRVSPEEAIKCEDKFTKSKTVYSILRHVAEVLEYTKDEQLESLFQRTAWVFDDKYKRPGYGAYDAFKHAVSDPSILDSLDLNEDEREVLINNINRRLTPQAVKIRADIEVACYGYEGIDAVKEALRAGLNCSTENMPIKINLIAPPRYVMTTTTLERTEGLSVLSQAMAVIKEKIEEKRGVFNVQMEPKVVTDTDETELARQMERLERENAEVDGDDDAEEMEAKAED
UniProt O75354: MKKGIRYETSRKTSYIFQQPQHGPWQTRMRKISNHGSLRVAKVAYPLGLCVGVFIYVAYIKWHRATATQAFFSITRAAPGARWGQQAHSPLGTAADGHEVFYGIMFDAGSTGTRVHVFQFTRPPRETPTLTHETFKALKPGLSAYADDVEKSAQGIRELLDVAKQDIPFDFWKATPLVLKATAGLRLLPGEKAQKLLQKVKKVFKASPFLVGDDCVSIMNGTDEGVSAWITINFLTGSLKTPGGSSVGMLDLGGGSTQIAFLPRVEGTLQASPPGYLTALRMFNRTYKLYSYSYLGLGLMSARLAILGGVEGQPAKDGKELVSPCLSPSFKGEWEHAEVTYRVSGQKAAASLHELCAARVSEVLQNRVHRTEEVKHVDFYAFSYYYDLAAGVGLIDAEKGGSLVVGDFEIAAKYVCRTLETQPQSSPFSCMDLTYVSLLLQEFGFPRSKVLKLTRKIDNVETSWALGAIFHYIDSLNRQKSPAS
UniProt Q5VUJ9: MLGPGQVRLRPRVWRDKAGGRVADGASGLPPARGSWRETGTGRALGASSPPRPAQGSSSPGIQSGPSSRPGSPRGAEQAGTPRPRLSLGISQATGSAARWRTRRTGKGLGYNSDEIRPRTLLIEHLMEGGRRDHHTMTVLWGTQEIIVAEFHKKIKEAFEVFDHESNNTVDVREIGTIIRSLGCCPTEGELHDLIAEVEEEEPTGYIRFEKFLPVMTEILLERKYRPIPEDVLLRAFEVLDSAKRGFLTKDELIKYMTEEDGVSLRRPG
UniProt P11171, whole entry, looked up: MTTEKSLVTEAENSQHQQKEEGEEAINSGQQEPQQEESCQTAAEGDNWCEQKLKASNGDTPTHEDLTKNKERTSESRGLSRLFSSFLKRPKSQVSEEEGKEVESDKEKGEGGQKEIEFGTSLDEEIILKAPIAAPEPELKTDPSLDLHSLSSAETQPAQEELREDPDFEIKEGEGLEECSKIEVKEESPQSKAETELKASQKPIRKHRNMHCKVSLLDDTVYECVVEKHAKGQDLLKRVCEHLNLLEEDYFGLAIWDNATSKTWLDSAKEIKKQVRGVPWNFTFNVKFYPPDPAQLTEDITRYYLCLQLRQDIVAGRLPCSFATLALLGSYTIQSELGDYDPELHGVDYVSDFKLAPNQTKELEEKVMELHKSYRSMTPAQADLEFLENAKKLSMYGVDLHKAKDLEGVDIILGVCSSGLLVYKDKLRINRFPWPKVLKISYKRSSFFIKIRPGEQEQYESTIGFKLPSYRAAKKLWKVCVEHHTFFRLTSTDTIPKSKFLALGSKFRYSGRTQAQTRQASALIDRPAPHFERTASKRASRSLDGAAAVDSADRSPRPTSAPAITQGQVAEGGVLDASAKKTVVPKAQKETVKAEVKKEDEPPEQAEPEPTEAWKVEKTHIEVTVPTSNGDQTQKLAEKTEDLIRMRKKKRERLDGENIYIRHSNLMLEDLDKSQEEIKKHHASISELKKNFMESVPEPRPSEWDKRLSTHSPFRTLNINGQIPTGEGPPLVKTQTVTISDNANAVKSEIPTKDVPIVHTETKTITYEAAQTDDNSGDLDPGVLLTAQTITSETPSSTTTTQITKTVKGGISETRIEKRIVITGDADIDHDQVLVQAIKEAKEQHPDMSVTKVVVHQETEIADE
UniProt Q5J8M3, whole entry, looked up: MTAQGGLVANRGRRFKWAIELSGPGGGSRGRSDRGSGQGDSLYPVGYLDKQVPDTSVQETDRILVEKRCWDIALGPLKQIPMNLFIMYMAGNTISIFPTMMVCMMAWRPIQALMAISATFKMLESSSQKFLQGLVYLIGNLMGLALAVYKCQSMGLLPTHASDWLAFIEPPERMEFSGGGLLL
UniProt Q14240, whole entry, looked up: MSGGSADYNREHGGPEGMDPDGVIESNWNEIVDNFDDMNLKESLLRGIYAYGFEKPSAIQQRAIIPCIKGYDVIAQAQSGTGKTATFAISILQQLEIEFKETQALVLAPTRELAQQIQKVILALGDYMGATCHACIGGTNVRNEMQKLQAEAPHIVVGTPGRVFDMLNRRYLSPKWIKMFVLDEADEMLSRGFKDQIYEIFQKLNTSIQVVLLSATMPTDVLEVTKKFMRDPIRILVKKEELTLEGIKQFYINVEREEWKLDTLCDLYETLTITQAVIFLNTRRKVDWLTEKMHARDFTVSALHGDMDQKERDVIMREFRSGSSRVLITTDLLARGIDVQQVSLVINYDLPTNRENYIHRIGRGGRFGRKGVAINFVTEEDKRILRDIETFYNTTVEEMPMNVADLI
UniProt P55199: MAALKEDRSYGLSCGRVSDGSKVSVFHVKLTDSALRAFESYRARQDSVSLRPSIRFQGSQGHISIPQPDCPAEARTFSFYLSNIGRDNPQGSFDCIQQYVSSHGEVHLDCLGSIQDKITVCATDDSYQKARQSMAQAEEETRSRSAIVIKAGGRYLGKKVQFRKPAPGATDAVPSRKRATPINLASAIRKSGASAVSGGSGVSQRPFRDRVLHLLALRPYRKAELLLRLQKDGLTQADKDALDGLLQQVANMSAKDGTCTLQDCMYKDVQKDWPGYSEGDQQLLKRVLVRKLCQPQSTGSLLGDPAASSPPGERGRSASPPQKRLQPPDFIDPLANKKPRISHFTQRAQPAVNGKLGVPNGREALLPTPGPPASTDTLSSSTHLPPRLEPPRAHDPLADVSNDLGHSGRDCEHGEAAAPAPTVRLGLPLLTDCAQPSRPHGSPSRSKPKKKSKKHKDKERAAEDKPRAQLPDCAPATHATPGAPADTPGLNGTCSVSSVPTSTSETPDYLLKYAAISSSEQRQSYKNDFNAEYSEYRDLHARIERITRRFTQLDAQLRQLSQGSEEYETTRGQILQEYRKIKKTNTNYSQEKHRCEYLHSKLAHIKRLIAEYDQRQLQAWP
UniProt Q96C19: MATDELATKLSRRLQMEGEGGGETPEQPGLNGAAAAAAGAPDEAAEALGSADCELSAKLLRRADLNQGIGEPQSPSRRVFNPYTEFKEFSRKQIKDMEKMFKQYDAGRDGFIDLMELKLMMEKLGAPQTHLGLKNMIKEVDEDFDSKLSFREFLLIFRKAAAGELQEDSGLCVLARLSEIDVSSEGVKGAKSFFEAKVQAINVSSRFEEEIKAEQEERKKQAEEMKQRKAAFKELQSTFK
UniProt Q9NR50: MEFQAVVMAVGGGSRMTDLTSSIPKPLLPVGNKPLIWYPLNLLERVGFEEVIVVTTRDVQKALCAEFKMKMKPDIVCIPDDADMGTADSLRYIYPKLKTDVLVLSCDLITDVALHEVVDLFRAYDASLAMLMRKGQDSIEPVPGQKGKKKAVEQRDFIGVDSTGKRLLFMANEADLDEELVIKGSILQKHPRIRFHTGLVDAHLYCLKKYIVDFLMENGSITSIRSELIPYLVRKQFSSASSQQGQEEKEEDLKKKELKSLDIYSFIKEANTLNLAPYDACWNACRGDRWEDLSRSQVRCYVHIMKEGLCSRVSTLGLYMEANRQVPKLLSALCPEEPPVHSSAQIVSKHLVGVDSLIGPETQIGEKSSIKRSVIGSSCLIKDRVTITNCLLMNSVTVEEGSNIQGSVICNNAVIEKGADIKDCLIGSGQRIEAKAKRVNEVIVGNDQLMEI

Compound: c1cn2cc(-c3ccc4cn[nH]c4c3)nc(Nc3ccc(N4CCOCC4)cc3)c2n1 [entospletinib]
Experiment: log2 fold change, soluble protein after heating vs DMSO (PISA); higher = thermal stabilisation; K562 cells, 10 uM, 30 min; active = over 0.2 and 3.5 SD of the protein, either way, in both replicates (recomputed)
How it was run: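 K562 cells at 2×10^6 cells/mL were given 10 μM compound for 30 min. Aliquots then went through 3 min of heating across 48°C-58°C, were pooled, and were extracted in PBS with 0.5% NP-40 at 4°C, and the supernatant after 21,000xg for 90 min was quantified by TMTpro 16plex LC-MS/MS with channel sums equalised. Thermal stability relative to control samples, from duplicates, is given as log2 fold change.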

log2 fold change, inactive:
EIF1AD (UniProt Q8N9N8) 0.02
EPB41, A0A2R8Y6D0 0.214
EIPR1 (UniProt Q53HC9) -0.055
EEF1E1 (UniProt O43324) 0.05
EIF2B5 (UniProt Q13144) 0.003
EEF2 (UniProt P13639) -0.024
ENTPD5 (UniProt O75356) -0.079
EFNB1 (UniProt P98172) -0.041
ELAVL4 (UniProt P26378) 0.144
ENSA isoform 3 (UniProt O43768) 0.03
EIF3L (UniProt Q9Y262) -0.015
EIF2B1 (UniProt Q14232) -0.003
EIF2S1 (UniProt P05198) -0.015
ENTPD6 (UniProt O75354) -0.074
EFCAB2 (UniProt Q5VUJ9) 0.039
EPB41 (UniProt P11171) 0.035
EMC4 (UniProt Q5J8M3) -0.002
EIF4A2 isoform 2 (UniProt Q14240) -0.04
ENY2 (UniProt Q9NPA8) 0.169
ELL (UniProt P55199) -0.166
EFHD2 (UniProt Q96C19) -0.026
ENDOG (UniProt Q14249) -0.015
EIF2B3 (UniProt Q9NR50) 0.02

Two records picked at random from the list so far:
log2 fold change, inactive:
ELAVL4 (UniProt P26378) 0.144
EMC4 (UniProt Q5J8M3) -0.002
